Source: PubChem BioAssay AID1259425 (University of Nebraska Medical Center, 2018)
Aim: 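Compare each knockdown with KSR1 silencing using changes in marker transcripts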 (primary screen). Cells: HCT116 human colon cancer cells. Reagents: siRNA pool against human genes, 50 nM siRNA. Measured: 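After 50 nM siRNA pool, branched-DNA assay measures six marker transcripts per well, minus blank, normalised to the geometric mean of two housekeeping transcripts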. Scale: BNIP3L mRNA: higher = more BNIP3L transcript after knockdown.
The whole screen tested about 14,000 reagents; this is a part drawn at random. Not all columns of the deposit are shown. Reagent sequences are not shown. The record does not give: the time to read-out.

Which result is listed for TTK (GeneID 7272)?
BNIP3L mRNA, set 1: 0.135

For F11 (GeneID 2160), what was measured?
BNIP3L mRNA, set 1: 0.125

What did the screen give for CRYBB3 (GeneID 1417)?
BNIP3L mRNA, set 1: 0.0704

For HIPK1 (GeneID 204851), how do the results read?
BNIP3L mRNA, set 1: 0.118

With WNT10B (GeneID 7480), what does the deposit list?
BNIP3L mRNA, set 1: 0.0553

What did the screen give for NELFE (GeneID 7936)?
BNIP3L mRNA, set 1: 0.154

Which result is listed for MFAP3L (GeneID 9848)?
BNIP3L mRNA, set 1: 0.126

Which result is listed for H2AJ (GeneID 55766)?
BNIP3L mRNA, set 1: 0.103

Which result is listed for COL6A3 (GeneID 1293)?
BNIP3L mRNA, set 1: 0.0769

For TUBG2 (GeneID 27175), what does the deposit list?
BNIP3L mRNA, set 1: 0.141

What did the screen give for OR10J1 (GeneID 26476)?
BNIP3L mRNA, set 1: 0.328

How did the screen score GRIN2A (GeneID 2903)?
BNIP3L mRNA, set 1: 0.0885

For DMWD (GeneID 1762), what was measured?
BNIP3L mRNA, set 1: 0.239

With FBLN1 (GeneID 2192), what was measured?
BNIP3L mRNA, set 1: 0.0833

Which result is listed for TBC1D10B (GeneID 26000)?
BNIP3L mRNA, set 1: 0.149

For ORM1 (GeneID 5004), how do the results read?
BNIP3L mRNA, set 1: 0.149

With RGS10 (GeneID 6001), what does the deposit list?
BNIP3L mRNA, set 1: 0.129

What is on record for ESS2 (GeneID 8220)?
BNIP3L mRNA, set 1: 0.237

For TSPO (GeneID 706), what does the deposit list?
BNIP3L mRNA, set 1: 0.147

Which result is listed for XAGE2 (GeneID 9502)?
BNIP3L mRNA, set 1: 0.222

For LYRM1 (GeneID 57149), what does the deposit list?
BNIP3L mRNA, set 1: 0.112

How did the screen score BPNT2 (GeneID 54928)?
BNIP3L mRNA, set 1: 0.0483

For TANK (GeneID 10010), what does the deposit list?
BNIP3L mRNA, set 1: 0.0731

What is on record for GPR176 (GeneID 11245)?
BNIP3L mRNA, set 1: 0.157

How did the screen score HAPSTR1 (GeneID 29035)?
BNIP3L mRNA, set 1: 0.105

Which result is listed for TIRAP (GeneID 114609)?
BNIP3L mRNA, set 1: 0.0524

With QARS1 (GeneID 5859), how do the results read?
BNIP3L mRNA, set 1: 0.268

What did the screen give for S100A11 (GeneID 6282)?
BNIP3L mRNA, set 1: 0.111

No new results follow: 4 of the entries above.
WNT10B (GeneID 7480) — BNIP3L mRNA, set 1 = 0.0553
NELFE (GeneID 7936) — BNIP3L mRNA, set 1 = 0.154
MFAP3L (GeneID 9848) — BNIP3L mRNA, set 1 = 0.126
H2AJ (GeneID 55766) — BNIP3L mRNA, set 1 = 0.103
